For 3 molecules, binding results are on record in publication PMC8460662.

No constants are given. Whether binding was seen depends on the method and setting. Some binding calls cover weakened binding; strength is not graded here.

Assay [1] has as its target PTEN-induced kinase 1, N-terminal mCherry (human) (UniProt Q9BXM7). As to the kind of experiment: two-colour coincidence detection (TCCD), single-molecule fluorescence; N-mCherry PINK1 co-expressed in LTE with N-GFP LB proteins; 300 s traces, triplicate; Association Quotient Q.
Assay [2] addresses T1, PTEN-induced kinase 1, N-terminal mCherry (human), Q9BXM7.
T1 chain: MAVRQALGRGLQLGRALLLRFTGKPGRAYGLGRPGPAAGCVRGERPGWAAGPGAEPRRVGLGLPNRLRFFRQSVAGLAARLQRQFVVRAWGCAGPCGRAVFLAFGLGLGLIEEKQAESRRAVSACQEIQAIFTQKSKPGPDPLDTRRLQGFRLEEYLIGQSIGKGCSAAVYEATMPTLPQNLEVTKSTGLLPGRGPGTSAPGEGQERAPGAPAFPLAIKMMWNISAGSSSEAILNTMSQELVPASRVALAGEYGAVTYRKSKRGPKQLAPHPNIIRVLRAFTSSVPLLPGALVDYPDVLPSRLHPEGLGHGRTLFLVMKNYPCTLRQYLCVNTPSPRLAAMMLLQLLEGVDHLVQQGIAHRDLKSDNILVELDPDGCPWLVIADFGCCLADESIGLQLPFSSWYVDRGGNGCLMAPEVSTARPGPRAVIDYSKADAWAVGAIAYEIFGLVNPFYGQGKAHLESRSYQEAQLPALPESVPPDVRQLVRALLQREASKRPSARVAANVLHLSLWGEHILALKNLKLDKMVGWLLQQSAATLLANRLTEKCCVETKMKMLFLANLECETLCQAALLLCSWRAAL
As to the kind of experiment: single-molecule fluorescence of the cell-free expressed protein; PINK1 expressed in the LTE cell-free system; aggregates observed; no further detail. Particulars: remark: other sources report otherwise.

B1: αβ-crystallin (protein, UniProt P02511 1-175)
chain: MDIAIHHPWIRRPFFPFHSPSRLFDQFFGEHLLESDLFPTSTSLSPFYLRPPSFLRAPSWFDTGLSEMRLEKDRFSVNLDVKHFSPEELKVKVLGDVIEVHGKHEERQDEHGFISREFHRKYRIPADVDPLTITSSLSSDGVLTVNGPRKQVSGPERTIPITREEKPAVTAAPKK
Turning to B1, the binding result in assay [1] is on record as “no binding”.

B2: PTEN-induced kinase 1, N-terminal mCherry, Q9BXM7 1-581 (protein)
chain: MAVRQALGRGLQLGRALLLRFTGKPGRAYGLGRPGPAAGCVRGERPGWAAGPGAEPRRVGLGLPNRLRFFRQSVAGLAARLQRQFVVRAWGCAGPCGRAVFLAFGLGLGLIEEKQAESRRAVSACQEIQAIFTQKSKPGPDPLDTRRLQGFRLEEYLIGQSIGKGCSAAVYEATMPTLPQNLEVTKSTGLLPGRGPGTSAPGEGQERAPGAPAFPLAIKMMWNISAGSSSEAILNTMSQELVPASRVALAGEYGAVTYRKSKRGPKQLAPHPNIIRVLRAFTSSVPLLPGALVDYPDVLPSRLHPEGLGHGRTLFLVMKNYPCTLRQYLCVNTPSPRLAAMMLLQLLEGVDHLVQQGIAHRDLKSDNILVELDPDGCPWLVIADFGCCLADESIGLQLPFSSWYVDRGGNGCLMAPEVSTARPGPRAVIDYSKADAWAVGAIAYEIFGLVNPFYGQGKAHLESRSYQEAQLPALPESVPPDVRQLVRALLQREASKRPSARVAANVLHLSLWGEHILALKNLKLDKMVGWLLQQSAATLLANRLTEKCCVETKMKMLFLANLECETLCQAALLLCSWRAAL
As for B2, in assay [2], the binding result was “binds”.

B3: TGM2 (enzyme, UniProt P21980 1-687)
chain: MAEELVLERCDLELETNGRDHHTADLCREKLVVRRGQPFWLTLHFEGRNYEASVDSLTFSVVTGPAPSQEAGTKARFPLRDAVEEGDWTATVVDQQDCTLSLQLTTPANAPIGLYRLSLEASTGYQGSSFVLGHFILLFNAWCPADAVYLDSEEERQEYVLTQQGFIYQGSAKFIKNIPWNFGQFEDGILDICLILLDVNPKFLKNAGRDCSRRSSPVYVGRVVSGMVNCNDDQGVLLGRWDNNYGDGVSPMSWIGSVDILRRWKNHGCQRVKYGQCWVFAAVACTVLRCLGIPTRVVTNYNSAHDQNSNLLIEYFRNEFGEIQGDKSEMIWNFHCWVESWMTRPDLQPGYEGWQALDPTPQEKSEGTYCCGPVPVRAIKEGDLSTKYDAPFVFAEVNADVVDWIQQDDGSVHKSINRSLIVGLKISTKSVGRDEREDITHTYKYPEGSSEEREAFTRANHLNKLAEKEETGMAMRIRVGQSMNMGSDFDVFAHITNNTAEEYVCRLLLCARTVSYNGILGPECGTKYLLNLNLEPFSEKSVPLCILYEKYRDCLTESNLIKVRALLVEPVINSYLLAERDLYLENPEIKIRILGEPKQKRKLVAEVSLQNPLPVALEGCTFTVEGAGLTEEQKTVEIPDPVEAGEEVKVRMDLLPLHMGLHKLVVNFESDKLKAVKGFRNVIIGPA
Take B3: the binding result in assay [1] is reported as “binds”.
